Assay results from PubChem BioAssay AID1671190 (National Center for Advancing Translational Sciences (NCATS), 2021).
In all, about 580,000 compounds went through this assay and about 6,100 (1.1%) were called active. Inconclusive means that the source gave no clear call. Such entries were picked first, then a sample of the others. Calls come from the whole dose curve; as a rule, active = well fitted inhibition curve with a large enough effect; inconclusive = small, poorly fitted or top-dose-only effect, or another doubt; inactive = no such curve, though single readings can be large or run the other way. A potency beside an inconclusive call is a rough fit, not a confirmed value.

The chains behind the UniProt entries cited, without tags or fusion partners. Where a name states a change or a piece, a line headed by the entry shows the natural chain unless it says otherwise.
UniProt P18054: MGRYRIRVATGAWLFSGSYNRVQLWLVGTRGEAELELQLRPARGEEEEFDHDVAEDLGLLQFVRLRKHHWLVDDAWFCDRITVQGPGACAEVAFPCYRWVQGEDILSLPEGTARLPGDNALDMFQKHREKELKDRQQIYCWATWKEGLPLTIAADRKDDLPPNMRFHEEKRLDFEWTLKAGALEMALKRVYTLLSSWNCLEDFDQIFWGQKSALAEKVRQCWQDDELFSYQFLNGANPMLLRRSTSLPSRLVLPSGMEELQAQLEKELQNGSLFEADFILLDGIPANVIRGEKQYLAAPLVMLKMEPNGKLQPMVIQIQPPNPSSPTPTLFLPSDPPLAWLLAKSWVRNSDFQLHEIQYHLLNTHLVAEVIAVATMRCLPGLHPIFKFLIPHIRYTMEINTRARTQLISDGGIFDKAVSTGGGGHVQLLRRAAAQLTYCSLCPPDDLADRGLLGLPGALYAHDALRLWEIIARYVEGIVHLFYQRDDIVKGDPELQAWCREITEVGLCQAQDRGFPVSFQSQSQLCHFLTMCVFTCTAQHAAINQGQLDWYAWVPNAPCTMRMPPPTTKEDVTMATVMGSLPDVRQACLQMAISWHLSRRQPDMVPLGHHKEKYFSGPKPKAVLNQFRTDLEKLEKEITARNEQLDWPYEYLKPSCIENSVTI

target: Polyunsaturated fatty acid lipoxygenase ALOX12 (Homo sapiens) (UniProt P18054); assay: Primary qHTS assay for inhibitors of human arachidonate 12S-lipoxygenase (ALOX12): Round 2; settings: purified 12hLO, xylenol orange hydroperoxide absorbance; series mostly up to 108 µM
In short: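 Purified human 12hLO at 150 nM in 25 mM Hepes, 0.01% Triton X-100, pH 7.0, preincubated 15 min at room temperature with compound. Reaction started with 40 uM arachidonic acid, 30 min at room temperature. Hydroperoxide measured by Fe-xylenol orange, 573/405 nm absorbance ratio.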
Potency is the fitted concentration of half-maximal effect.

| SMILES | Potency |
| --- | --- |
| Cc1ccc(-c2nc(C(=O)NCc3ccc(Cl)cc3)c3n2CCCCC3)cc1 | inconclusive: 100 µM [inhibitor, partial curve, poor fit] |
| Cc1ccccc1Nc1sc(C(=O)c2ccc3c(c2)OCO3)c(N)c1S(=O)(=O)c1ccccc1 | inconclusive: 126 µM [inhibitor, partial curve, poor fit] |
| O=C(NCc1ccco1)c1ccc2c(c1)N(Cc1ccccc1)CCS2 | inconclusive: 39.8 µM [inhibitor, partial curve, poor fit] |
| COc1cc(OC)cc(C(=O)Nc2ccc3c(c2)CN(Cc2ccc(F)cc2)C(=O)C(C)O3)c1 (stereo unspecified) | inconclusive: 35.5 µM [inhibitor, full curve, poor fit] |
| CC(/C=C/c1ccc(O)cc1)=NNc1ccccc1 | inconclusive: 50.1 µM [inhibitor, partial curve, poor fit] |
| CCCN(c1ccc(OCC)cc1)c1nc(C(=O)OCC)nc2ccccc12 | inconclusive: 31.6 µM [inhibitor, single point] |
| O=C(NCCCc1nc2ccccc2n1Cc1ccccc1Cl)C1CCCCC1 | inactive |
| CC(=O)C1=C(OC(=O)C(C)C)c2ccccc2S(=O)(=O)N1Cc1ccccc1 | inconclusive: 35.5 µM [inhibitor, partial curve, poor fit] |
| CCc1ccc(C(=O)N2CCCC(c3nccn3Cc3ccncc3)C2)s1 (stereo unspecified) | inactive |
| N[C@@H](Cc1cnc[nH]1)C(=O)O | inactive |
| CCOc1ccc(C(=O)O)cc1OC | inactive |
| Cc1noc(C)c1C(=O)N1CCC2(CCCN(Cc3nccs3)C2)CC1 | inconclusive: 25.1 µM [inhibitor, partial curve, poor fit] |
| CCOc1ccccc1CN1CCC2(CCN(Cc3ccc(F)cc3)CC2)Oc2ccccc21 | active: 31.6 µM |
| Cc1[nH]n2c(=O)cc(-c3ccccc3Cl)nc2c1-c1ccccc1 | inconclusive: 50.1 µM [inhibitor, partial curve, poor fit] |
| CC(C)NS(=O)(=O)c1ccc(NC(=S)NC(=O)c2ccc(-c3ccccc3)cc2)cc1 | inconclusive: 44.7 µM [inhibitor, partial curve, poor fit] |
| CN1CCN(C2Cc3ccc(Cl)cc3Sc3ccc(F)cc32)CC1 (stereo unspecified) | inconclusive: 44.7 µM [inhibitor, partial curve, poor fit] |
| O=C(/C=C/c1ccccc1)NCCSCc1ccccc1 | inactive |
| O=C(CSc1nc2ncc(Cl)cc2[nH]1)c1c[nH]c2ccccc12 | inactive |
| CC(N)c1ccc(C(=O)O)o1 (stereo unspecified) | inconclusive: 2.51 µM [inhibitor, full curve] |
| O=C1NC2c3ccccc3CC2O1 (stereo unspecified) | inactive |
| CCOc1ccccc1OCCNC1CCCC1 | inconclusive: 3.98 µM [inhibitor, full curve] |
| Cc1ccc(CCC(=O)Nc2ccc(CC(=O)O)cc2)o1 | inactive |

| SMILES | Potency |
| --- | --- |
| C#CCOCCOCCOCCNc1nc(N2CCN(C(=O)Cn3cc(CC(C)O)nn3)CC2)nc(N2CCN(C(=O)[C@H]([C@@H](C)CC)n3cc(CCCCN)nn3)CC2)n1 (stereo partly specified) | inconclusive: 7.08 µM [inhibitor, full curve, poor fit] |
| Nc1nc(SCC(=O)N2CCc3ccccc3C2)[nH]c(=O)c1-c1ccccc1 | inconclusive: 3.98 µM [inhibitor, full curve, poor fit] |
| Cc1ccccc1Cn1c(NC2CCCCC2)nc2c1c(=O)[nH]c(=O)n2C | inconclusive: 100 µM [inhibitor, single point] |
| CC(C)c1c(Cl)c(O)c(-c2ccccc2)c(=O)n1-c1ccc(F)cc1 | inconclusive: 44.7 µM [inhibitor, partial curve, poor fit] |
| O=C(O)C(c1c[nH]c2cc(Cl)ccc12)N1CCN(C/C=C/c2ccccc2)CC1 (stereo unspecified) | active: 44.7 µM |
| c1ccc(CNc2nc(Nc3ccccc3)nc3ccccc23)cc1 | inconclusive: 39.8 µM [inhibitor, partial curve, poor fit] |
| CCCCCCCNC(=O)C1(CC2CC(c3cccc(Br)c3)=NO2)CCNCC1 (stereo unspecified) | inconclusive: 89.1 µM [inhibitor, partial curve, poor fit] |
| COc1ccc(CNc2oc(COc3cccc(Cl)c3)nc2C#N)cc1 | inconclusive: 2.82 µM [inhibitor, full curve, poor fit] |
| CCC1=C(CC2NCCc3ccccc32)CC2c3cc(OC)c(OC)cc3CCN2C1 (stereo unspecified) | inactive |
| Cc1ccc(SCC2(O)CCN(S(=O)(=O)c3ccc(Cl)cc3)CC2)cc1 | inconclusive: 6.31 µM [inhibitor, partial curve, poor fit] |
| CCOc1ccc(/C(O)=C2/C(=O)C(=O)N(CCOCCO)C2c2ccccc2)cc1 (stereo unspecified) | inconclusive: 4.47 µM [inhibitor, full curve, poor fit] |
| O=C(/C=C/c1ccco1)OCC(=O)C12CC3CC(CC(C3)C1)C2 | active: 39.8 µM |
| CCc1ccc(OCC(=O)NC(=S)Nc2cccc(CO)c2)c(Br)c1 | inactive |
| CC(=O)c1c(-c2ccccc2)[nH]c2ccccc12 | inactive |
| Cc1cc2ccccn2c1C(=O)c1ccc(C#N)cc1 | inconclusive: 50.1 µM [inhibitor, partial curve, poor fit] |
| COc1ccc(C(=O)N/C(=C\c2ccco2)C(=O)NC2CCS(=O)(=O)C2)cc1 (stereo unspecified) | inconclusive: 39.8 µM [inhibitor, partial curve, poor fit] |
| O=c1nc(/C=C/c2cc([N+](=O)[O-])ccc2Cl)cc(C(F)(F)F)[nH]1 | inconclusive: 25.1 µM [inhibitor, partial curve, poor fit] |
| COc1ccc(CCNC(=O)C(=O)Nc2ccc3c(c2)OCO3)cc1OC | inactive |
| CCOC(=O)C1CCCN(C(=O)Cn2ncc3c([nH]c4ccccc43)c2=O)C1 (stereo unspecified) | inconclusive: 158 µM [inhibitor, partial curve, poor fit] |
| CCc1nc(Cn2cnc3c2c(=O)n(C)c(=O)n3C)cs1 | inconclusive: 12.6 µM [inhibitor, partial curve, poor fit] |
| Clc1ccccc1-c1nn2c(Cn3cnc4ccccc43)nnc2s1 | inconclusive: 141 µM [inhibitor, single point] |
| CCOc1ccc(-c2nc(CSCC(=O)NC3CCCc4ccccc43)c(C)o2)cc1 (stereo unspecified) | inactive |

| SMILES | Potency |
| --- | --- |
| COc1cccc(C(=O)OC(C)C(=O)C23CC4CC(CC(C4)C2)C3)c1OC (stereo unspecified) | inactive |
| Nc1ccccc1Nc1cccc(C(F)(F)F)c1 | inconclusive: 44.7 µM [inhibitor, partial curve, poor fit] |
| O=C(CCN1C(=O)/C(=C\c2ccccc2F)SC1=S)N1CCOCC1 | inconclusive: 44.7 µM [inhibitor, partial curve, poor fit] |
| S=C(NCCc1ccccc1)NCc1cccc(Br)c1 | inconclusive: 10 µM [inhibitor, full curve, poor fit] |
| CC[C@]1(C(=O)OC)[C@H]2C(=O)N(C)C(=O)[C@H]2[C@H]2CN=C(SCc3ccc(C)cc3)N21 | inconclusive: 44.7 µM [inhibitor, partial curve] |
| O=C(Nc1cccnc1)c1ccc(-c2ccc(Cl)cc2)o1 | inactive |
| CCc1sc(C(=O)OCC(=O)N2CCC(c3ccccc3)=N2)cc1C | inactive |
| CCOc1ccc(CN2CCN(S(=O)(=O)c3ccc(NC(C)=O)cc3)CC2)cc1OC | inconclusive: 0.501 µM [inhibitor, full curve, poor fit] |
| COCCNC(=O)C[C@@H]1C[C@H]2O[C@H](CNC3CCC(F)(F)CC3)[C@@H](O)[C@H]2O1 | inconclusive: 126 µM [inhibitor, partial curve, poor fit] |
| COC(=O)Cn1cnc2c(nnn2-c2cccc(OC)c2)c1=O | inconclusive: 7.08 µM [inhibitor, full curve, poor fit] |
| COc1ccc(/C=C/C(=O)NC(=S)NNC(=O)c2cc(OC)c(OC)c(OC)c2)cc1OC | inconclusive: 15.8 µM [inhibitor, full curve] |
| CC(=O)Nc1ccc(OCC(O)Cn2nc(C)c(C)c2C)cc1 (stereo unspecified) | inconclusive: 112 µM [inhibitor, partial curve, poor fit] |
| NC(=O)N1CCC2(CC1)NC(=O)N(c1ccccc1)N2 | inconclusive: 50.1 µM [inhibitor, partial curve, poor fit] |
| COC(=O)c1ccc(C2/C(=C(/O)c3ccc(OC)cc3)C(=O)C(=O)N2c2cc(C)on2)cc1 (stereo unspecified) | inconclusive: 50.1 µM [inhibitor, partial curve, poor fit] |
| COc1ccc(-c2ccc(C(c3c(C)[nH][nH]c3=O)c3c(C)[nH][nH]c3=O)o2)c([N+](=O)[O-])c1 | inactive |
| CCN(CC)S(=O)(=O)c1cccc(-c2n[nH]c(=S)n2C)c1 | inactive |
| CNC(=O)c1cc(Cl)c(OC)c(OC)c1 | inconclusive: 44.7 µM [inhibitor, partial curve, poor fit] |
| Nc1ccc(N=Cc2ccc(Cl)cc2Cl)cc1Cl | inconclusive: 63.1 µM [inhibitor, partial curve, poor fit] |
| Cn1c(=O)oc2cc(S(=O)(=O)N3CCCC(C(=O)Nc4nccs4)C3)ccc21 (stereo unspecified) | inconclusive: 126 µM [inhibitor, single point] |
| Cc1ccc(CN(C(=O)c2ccc([N+](=O)[O-])cc2)c2ccccn2)cc1 | inactive |
| CN(C)S(=O)(=O)c1cccc(NC(=S)NN=C(Cc2ccccc2)Cc2ccccc2)c1 | inconclusive: 50.1 µM [inhibitor, partial curve, poor fit] |
| COc1ccc(NC(=S)NCCC2=CCCCC2)cc1OC | inconclusive: 44.7 µM [inhibitor, partial curve, poor fit] |

Pulled by compound from the entries so far, 4 records:

| SMILES | Potency |
| --- | --- |
| CNC(=O)c1cc(Cl)c(OC)c(OC)c1 | inconclusive: 44.7 µM [inhibitor, partial curve, poor fit] |
| NC(=O)N1CCC2(CC1)NC(=O)N(c1ccccc1)N2 | inconclusive: 50.1 µM [inhibitor, partial curve, poor fit] |
| Nc1ccccc1Nc1cccc(C(F)(F)F)c1 | inconclusive: 44.7 µM [inhibitor, partial curve, poor fit] |
| CCOc1ccc(CN2CCN(S(=O)(=O)c3ccc(NC(C)=O)cc3)CC2)cc1OC | inconclusive: 0.501 µM [inhibitor, full curve, poor fit] |
